The source of these data is PMC10009991.

Chains of the proteins cited; added tags and fusions are not shown. Lines headed by an entry give the natural chain unless they say otherwise; changes in a name come on top. Residues count along the entry.
UniProt P48061, residues 22-93: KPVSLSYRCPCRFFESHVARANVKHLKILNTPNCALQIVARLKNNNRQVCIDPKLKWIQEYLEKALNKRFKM
UniProt Q99542: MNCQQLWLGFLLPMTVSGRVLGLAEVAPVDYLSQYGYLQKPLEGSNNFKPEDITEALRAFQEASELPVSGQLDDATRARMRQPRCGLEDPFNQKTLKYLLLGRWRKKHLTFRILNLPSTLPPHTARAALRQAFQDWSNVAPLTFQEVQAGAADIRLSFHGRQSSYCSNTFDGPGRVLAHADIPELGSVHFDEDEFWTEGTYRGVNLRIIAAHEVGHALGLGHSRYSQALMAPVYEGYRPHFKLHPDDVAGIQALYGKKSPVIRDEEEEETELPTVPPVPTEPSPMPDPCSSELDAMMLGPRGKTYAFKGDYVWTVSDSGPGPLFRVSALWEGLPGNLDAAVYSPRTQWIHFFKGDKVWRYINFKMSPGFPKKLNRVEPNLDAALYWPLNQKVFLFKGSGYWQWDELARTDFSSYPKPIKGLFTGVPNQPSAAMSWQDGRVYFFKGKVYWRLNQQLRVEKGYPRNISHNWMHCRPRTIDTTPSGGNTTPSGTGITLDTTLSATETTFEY

No constants are given. Whether binding was seen depends on the method and setting. In cells and extracts the contact can be indirect. Binding calls can cover weak binding; strength is not graded here.

The target in the assay is C-X-C motif chemokine ligand 12 (CXCL12, SDF1) (human (endogenous in HPMECs)) (UniProt P48061). As to the kind of experiment: co-IP; HPMEC lysate (800 µg) with 8 µg of anti-MMP19, anti-ET1 or anti-SDF1, 4 °C overnight; Protein A/G magnetic beads (Pierce Classic Magnetic IP/Co-IP Kit), room temperature 3 h; immunoblot. (In western blotting, separated proteins are transferred to a membrane and probed.)

In the case of “Matrix metalloproteinase 19 (MMP19) (from UniProt Q99542) (enzyme)”, the binding entry was “binds”.
